Earlier results in patent US20080160065A1 (priority 2006, published 2008).
At least one compound was matched to its structure with a doubt left.

Test system: Gram-positive cocci
Details: susceptible Gram-positive cocci

CCC[C@@H]1C[C@@H](C(=O)N[C@@H]([C@H]2O[C@H](SC)[C@H](O)[C@@H](O)[C@H]2O)[C@H](C)Cl)N(C)C1 [clindamycin]
MIC: 2 to 800 ng/mL
